This note sets out measurements from PubChem BioAssay AID638 (SRMLSC, 2007).

Among all 1,300 compounds or so, about 65 (5%) were called active.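 Rule for the calls: active = growth inhibition reaching a set limit at one or more tested doses; inactive = the rest.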 Some of the results follow. Entries with a potency or affinity are not part of this list.

A short description of this assay: wild-type E. coli BW25113 antibacterial activity – OD615, dose response (AID 638). The conditions noted are these: at 100 µM (top of the series) unless noted. In short, it runs like this: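 Assay system: E. coli BW25113 wild type. Doses: compound concentration series. Timing: 20 h compound exposure, 37 °C. Technique: OD615 absorbance. Medium: LB broth containing kanamycin at 50 µg/mL. Benchmarks: chloramphenicol at 30 µM final as inhibition control. Measure: IC50 from 4-parameter logistic, bounds fixed 0–100%.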
`COC(=O)c1cc(CSc2nc3ccc(C)cc3[nH]2)oc1C`: the growth inhibition was inactive: 1.2%.

On to `O=C(NCc1ccco1)C(c1cccs1)N(C(=O)C1COc2ccccc2O1)c1cccc(O)c1` (configuration not stated), for which the growth inhibition was inactive: 1.03%.

Turning to `N#Cc1nc(-c2ccc(OCc3ccccc3)cc2)oc1NCCCN1CCOCC1`, the growth inhibition is inactive: -5.85%.

As to `CC(C)c1nc(N2CCN(C(=O)c3ccco3)CC2)c2c3c(sc2n1)CCCC3`, the growth inhibition is inactive: 8.8%.

In the case of `O=C(CC(=O)c1cc(Cl)ccc1O)c1ccccc1`, the growth inhibition is inactive: 19.9%.

As to `C=CCSc1nc2c(c(=N)n1CC=C)C1CCCC1S2` (configuration not stated), the growth inhibition is inactive: 14.5%.

As for `O=C(CSc1nc2nc(-c3cccs3)cc(C(F)(F)F)c2c(=O)[nH]1)NCc1ccco1`, the growth inhibition is inactive: 2.45%.

Turning to `COc1ccccc1C1SCCN1S(=O)(=O)c1cccc(C(F)(F)F)c1` (configuration not stated), the growth inhibition is inactive: -11.3%.

In the case of `O=C(Nc1ccc(Cl)cc1)N1CCC(c2nc(-c3ccc(F)cc3)no2)CC1`, the growth inhibition is inactive: 7.49%.

For the molecule `CC1(C)C(=O)OC(c2cc(Br)ccc2O)C(C)(C)C1=O` (configuration not stated), the growth inhibition is inactive: 6.03%.

As to `CCOC(=O)N1CCN(S(=O)(=O)c2ccc(OCC)c3ccccc23)CC1`, the growth inhibition is inactive: 5.33%.

For `Clc1ccc(Nc2nc(-c3cccs3)cs2)nc1`, the growth inhibition was inactive: 8.56%.

Regarding `Cc1nn(Cc2ccc(C(=O)N3c4ccc(F)cc4CCC3C)o2)c(C)c1Br` (configuration not stated), the growth inhibition is inactive: 6.16%.

With `CC(C)Cc1cc(C(=O)Nc2sc3c(c2C#N)CCCC3)no1`, the growth inhibition is inactive: 0.67%.

With `Cn1c(CSc2nc3ccccc3s2)nc2ccccc21`, the growth inhibition is inactive: 13.6%.

As to `Cc1cc(C)c(O)c(-c2cc(C(=O)Nc3ccc(S(=O)(=O)N4CCOCC4)cc3)[nH]n2)c1`, the growth inhibition is inactive: 1.63%.

Take `COC(=O)c1ccccc1NC(=O)c1ccc2c(c1)OCCO2`: the growth inhibition was inactive: 8.18%.

In the case of `CN(C)Cc1nc2c(c(=O)[nH]1)C1(CCCCC1)Cc1ccccc1-2`, the growth inhibition is inactive: -2.46%.

For `CC1CCN(C(=O)c2ccc(COc3ccccc3Cl)o2)CC1`, the growth inhibition was inactive: 11.2%.

On to `CNc1ccc(C(O)(C(F)(F)F)C(F)(F)F)cc1C(O)(C(F)(F)F)C(F)(F)F`, for which the growth inhibition is inactive: 9.61%.

Consider `Cn1c(=O)n(Cc2ccccc2)c(=O)c2c1nc1n2CCCN1Cc1ccccc1`, for which the growth inhibition was inactive: -13.5%.

For the molecule `O=C(CN1CCN(S(=O)(=O)c2ccc(F)cc2)CC1)Nc1ccc(Cl)c(C(F)(F)F)c1`, the growth inhibition was inactive: 1.58%.

In the case of `CCOC(=O)c1cnn(-c2nc3sc4c(c3c(=O)[nH]2)CCCC4)c1N`, the growth inhibition is inactive: -1.22%.

On to `CCc1ccc(S(=O)(=O)NCCc2csc(-c3ccccc3)n2)s1`, for which the growth inhibition is inactive: -7.65%.

Take `O=C(c1ccc(Cl)c(Cl)c1)N(Cc1ccco1)c1ccc(O)cc1`: the growth inhibition was inactive: 15.9%.

On to `CCOc1cc(C)c(Cl)cc1S(=O)(=O)n1nnc2ccccc21`, for which the growth inhibition was inactive: -9.49%.

For the molecule `O=C(CCNc1cc(Cl)cc(Cl)c1)c1ccco1`, the growth inhibition is inactive: 7.38%.

With `COc1ccc(-c2noc(CN3CCC(Cc4ccccc4)CC3)n2)cc1`, the growth inhibition is inactive: 14.1%.

As for `O=C(O)C1CC=CCC1C(=O)Nc1ccc(S(=O)(=O)N2CCCc3ccccc32)cc1` (configuration not stated), the growth inhibition was inactive: 16.2%.

In the case of `Cc1ccc2[nH]c(=O)c(C(c3nnnn3C3CCCC3)N(Cc3cccnc3)Cc3ccco3)cc2c1` (configuration not stated), the growth inhibition was inactive: -10.9%.

On to `CCc1nc(N2CCCCC2)c2oc3ccccc3c2n1`, for which the growth inhibition was inactive: -1.03%.

Regarding `Cc1cc(C)nc(-n2nc(C)cc2Nc2ccccc2)n1`, the growth inhibition was inactive: 7.27%.

For `Cc1cc(C)c(C#N)c(SCC(=O)OC2CCCCC2)n1`, the growth inhibition is inactive: 8.15%.

For the molecule `O=S(=O)(Nc1nc2ccccc2nc1NCc1ccco1)c1cccs1`, the growth inhibition is inactive: 3.56%.

Consider `O=C(Nc1nc(SCc2ccc(F)cc2)ns1)c1ccco1`, for which the growth inhibition is inactive: 8.06%.

Take `Clc1ccc(C(c2nnnn2C2CCCCC2)N(Cc2cccnc2)Cc2ccco2)cc1` (configuration not stated): the growth inhibition is inactive: -19.4%.

For `CCn1c(Cn2nnc(-c3ccccc3)n2)nnc1SCc1ccc(Cl)c(Cl)c1`, the growth inhibition is inactive: -0.33%.

Consider `COc1cc(-c2nc(Cc3ccccc3Cl)no2)cc(OC)c1OC`, for which the growth inhibition is inactive: 8.5%.

Take `CCOC(=O)N1CCN(c2nc3ccccc3nc2C(C#N)S(=O)(=O)c2ccc(C)cc2)CC1` (configuration not stated): the growth inhibition is inactive: 2.6%.

For `CCOC(=O)c1cccc(NC(=O)c2cc3sccc3n2C)c1`, the growth inhibition was inactive: -7.71%.

Regarding `COc1ccc(C2c3sc(=O)[nH]c3SC3C4CCC(C4)C23)cc1` (configuration not stated), the growth inhibition is inactive: 0.8%.

For the molecule `CC1CCCCN1c1nc(-c2ccncc2)nc2ccccc12` (configuration not stated), the growth inhibition is inactive: 10.6%.

Take `Cc1ccc(C(C(=O)NC2CCCC2)N(Cc2cccs2)C(=O)CNC(=O)c2cccs2)o1` (configuration not stated): the growth inhibition was inactive: 15.7%.

As for `COc1ccc2[nH]c3c(=O)n(CCCCC(=O)NCCN4CCCC4)c(=S)[nH]c3c2c1`, the growth inhibition is inactive: 3.52%.

Regarding `COC(=O)c1cn(NC(=O)c2cnccn2)c(=O)c2ccccc12`, the growth inhibition was inactive: 3.91%.

With `Cc1cccc(N2CCN(C(=O)c3cc4n(n3)C(C(F)(F)F)CC(c3ccco3)N4)CC2)c1C` (configuration not stated), the growth inhibition was inactive: 2.46%.

Consider `CCCCN1C(=O)C2ON(c3ccccc3C)C(c3ccco3)C2C1=O` (configuration not stated), for which the growth inhibition is inactive: 14.5%.

With `O=C(Nc1ccc2nc(-c3cccs3)[nH]c2c1)c1ccco1`, the growth inhibition was inactive: 15%.

With `COC(=O)c1c(NC(=O)Cc2cccs2)sc2c1CCCC2`, the growth inhibition was inactive: 2.67%.

With `COc1cccc(N2CCN(CC(=O)Nc3nc4c(s3)CC(C)CC4)CC2)c1` (configuration not stated), the growth inhibition was inactive: -0.05%.

For the molecule `C=C(C)COc1ccc(-c2n[nH]c(C)c2-c2ccccc2OC)c(O)c1`, the growth inhibition was inactive: 8.4%.

With `COc1ccc(-c2cc3nc4c(c(N5CCC6(CC5)OCCO6)n3n2)CCCC4)cc1`, the growth inhibition was inactive: 0.64%.

In the case of `Cc1noc(NS(=O)(=O)c2ccc(NC(=O)Nc3ccc(Cl)c(Cl)c3)cc2)c1C`, the growth inhibition is inactive: 14.3%.

Consider `CCOC(=O)c1c(C)n(C)c2ccc(OCC(O)Cn3nc(C)c(Br)c3C)cc12` (configuration not stated), for which the growth inhibition is inactive: -16.9%.

Take `CCCCCc1cc(O)c2c(C)cc(=O)oc2c1`: the growth inhibition is inactive: 7.24%.

Take `N#C/C(=C\c1cccs1)Sc1nc2ccccc2s1`: the growth inhibition is inactive: -8.78%.

As for `O=c1n(Cc2ccc(Cl)cc2)c2sc3c(c2c2ncnn12)CCCC3`, the growth inhibition is inactive: -18.4%.

`Cc1cc(NC(=O)c2noc3c2CCCC3)nn1Cc1ccc(Cl)cc1`: the growth inhibition is inactive: -1.13%.

Regarding `CCc1cc(C(=O)Cc2ccc(F)cc2)c(O)cc1O`, the growth inhibition was inactive: 12.6% [at 50 µM].

Regarding `COc1ccccc1-c1nnc2sc(COc3ccc(Cl)cc3)nn12`, the growth inhibition is inactive: 1.04%.

On to `CC(C)(C)c1ccc(C(=O)CCCSC2=C(C#N)C(c3ccco3)C3=C(CCCC3=O)N2)cc1` (configuration not stated), for which the growth inhibition is inactive: -21.6%.

With `Cc1cccc(C)c1NC(=O)C(c1cccs1)N(Cc1ccco1)C(=O)Cn1nnc2ccccc21` (configuration not stated), the growth inhibition is inactive: -8.04%.

For `Clc1ccc2nc(CN3CCCc4ccccc43)cn2c1`, the growth inhibition was inactive: 3.24%.

With `CC(C)c1nnc(NC(=O)c2c(O)c3cccc4c3n(c2=O)CC4)s1`, the growth inhibition was inactive: -12.4%.

For the molecule `CCOC(=O)N1CCN(CC(=O)Nc2c(C(=O)OC)[nH]c3ccc(Cl)cc23)CC1`, the growth inhibition was inactive: -2.2%.

Turning to `Cc1cc(Cl)ccc1OC(C)C(=O)Nc1ccccc1N1CCOCC1` (configuration not stated), the growth inhibition was inactive: 0.02%.

For `C=CCc1cc(C)ccc1OCC(O)CN1CCN(c2ccccc2)CC1` (configuration not stated), the growth inhibition was inactive: 14%.

Regarding `Cc1[nH]c2ccccc2c1NC(=O)CN1CCN(c2cccc(C(F)(F)F)c2)CC1`, the growth inhibition is inactive: 13.9% [at 50 µM].

`COc1ccccc1N1CCN(Cc2nc(N)nc(Nc3ccc(C)c(Cl)c3)n2)CC1`: the growth inhibition is inactive: 8.69%.

For `COc1ccc(S(=O)(=O)C(C#N)c2nc3ccccc3nc2N2CCCC(C)C2)cc1` (configuration not stated), the growth inhibition was inactive: 14.1%.

Take `CC(C)(C)c1cc(C(F)(F)F)nc(SCCCNC(=O)c2ccco2)n1`: the growth inhibition was inactive: 16.2%.

`Cc1ccc2oc(=O)n(Cc3ccccc3OC(C)C)c2c1`: the growth inhibition was inactive: 2.91%.

For the molecule `CCCCOc1ccc(S(=O)(=O)n2c(C)nc3ccccc32)cc1`, the growth inhibition is inactive: 5.27%.

As to `CC(C)C(c1nnnn1C1CCCC1)N1CCCc2ccccc21` (configuration not stated), the growth inhibition is inactive: 1.45%.

On to `C=C(C)C1CCC(C)=C1COC(=O)Nc1ccccc1` (configuration not stated), for which the growth inhibition was inactive: 2.23%.

`COc1ccc2c(-c3ccccc3)cc(N3CCOCC3)nc2c1`: the growth inhibition is inactive: 10.2%.

As to `Nc1nncn1C(=O)CCCN1C(=O)c2ccccc2C1=O`, the growth inhibition was inactive: 7.03%.

With `CC(C)c1nc(N2CCOCC2)c(C#N)c2c1CCCC2`, the growth inhibition was inactive: 9.7%.

Regarding `Cc1ccc(-n2c(=O)[nH]cc(C(=O)Nc3ccc4c(c3)OCCO4)c2=O)cc1C`, the growth inhibition is inactive: -5.27%.

With `O=C1CCCc2nc3nc4ccccc4n3cc21`, the growth inhibition is inactive: 14.4% [at 50 µM].

`Cc1ccnc(N2CCC(C(=O)Nc3cccc(C(F)(F)F)c3)CC2)n1`: the growth inhibition was inactive: 1.68%.

For `CC1CCN(c2oc(-c3ccccc3F)nc2C#N)CC1`, the growth inhibition was inactive: -1.06%.

Take `CCOC(=O)c1c(NC(=O)C(F)(OC)C(F)(F)F)sc(C(=O)N2CCCCC2)c1C` (configuration not stated): the growth inhibition is inactive: 8.1%.

On to `Cn1c(Oc2ccccc2NCc2cc(Br)ccc2O)cc(=O)n(C)c1=O`, for which the growth inhibition is inactive: 5%.

`O=C(Nc1cccc(-c2nnc(-c3ccccc3)o2)c1)c1ccc(Br)o1`: the growth inhibition was inactive: -10.1%.

Turning to `CCOC(=O)c1ccc(NS(=O)(=O)c2ccc(SC)cc2)cc1`, the growth inhibition is inactive: 1.41%.

On to `CCn1c(C(=O)N2CCC(C(=O)NCCCSC3CCCCC3)CC2)cc2sccc21`, for which the growth inhibition is inactive: -7.08%.

Consider `COC(=O)c1sccc1NC(=O)c1csc(C)c1`, for which the growth inhibition is inactive: 0.89%.

As to `Cc1ccc(Nc2nc(N)nc(CN3CCN(c4ccccc4)CC3)n2)cc1Cl`, the growth inhibition is inactive: 2.14%.

As to `COc1ccc(-c2nnc(NC(=O)c3ccc(S(=O)(=O)N4COCC4(C)C)cc3)o2)cc1`, the growth inhibition is inactive: -13.8%.

With `O=C(CSc1ncn(-c2ccccc2)n1)Nc1nc2c(s1)CCCC2`, the growth inhibition was inactive: 4%.

Consider `Cc1ccc2c(c1)NC(=O)C(CC(=O)NCCCN1CCN(c3cc(Cl)ccc3C)CC1)O2` (configuration not stated), for which the growth inhibition was inactive: 3.24%.
